Reference: PMC10031305
No constants are given. Whether binding was seen depends on the method and setting. In cells and extracts the contact can be indirect. Some binding calls cover weakened binding; strength is not graded here.

Protein sequences, listed by entry. Tags and fused reporters are not part of them. Lines headed by an entry give the natural chain unless they say otherwise; changes in a name come on top. Chains listed by the source or under a name are the forms on record and can include a tag or linker.
UniProt P15924: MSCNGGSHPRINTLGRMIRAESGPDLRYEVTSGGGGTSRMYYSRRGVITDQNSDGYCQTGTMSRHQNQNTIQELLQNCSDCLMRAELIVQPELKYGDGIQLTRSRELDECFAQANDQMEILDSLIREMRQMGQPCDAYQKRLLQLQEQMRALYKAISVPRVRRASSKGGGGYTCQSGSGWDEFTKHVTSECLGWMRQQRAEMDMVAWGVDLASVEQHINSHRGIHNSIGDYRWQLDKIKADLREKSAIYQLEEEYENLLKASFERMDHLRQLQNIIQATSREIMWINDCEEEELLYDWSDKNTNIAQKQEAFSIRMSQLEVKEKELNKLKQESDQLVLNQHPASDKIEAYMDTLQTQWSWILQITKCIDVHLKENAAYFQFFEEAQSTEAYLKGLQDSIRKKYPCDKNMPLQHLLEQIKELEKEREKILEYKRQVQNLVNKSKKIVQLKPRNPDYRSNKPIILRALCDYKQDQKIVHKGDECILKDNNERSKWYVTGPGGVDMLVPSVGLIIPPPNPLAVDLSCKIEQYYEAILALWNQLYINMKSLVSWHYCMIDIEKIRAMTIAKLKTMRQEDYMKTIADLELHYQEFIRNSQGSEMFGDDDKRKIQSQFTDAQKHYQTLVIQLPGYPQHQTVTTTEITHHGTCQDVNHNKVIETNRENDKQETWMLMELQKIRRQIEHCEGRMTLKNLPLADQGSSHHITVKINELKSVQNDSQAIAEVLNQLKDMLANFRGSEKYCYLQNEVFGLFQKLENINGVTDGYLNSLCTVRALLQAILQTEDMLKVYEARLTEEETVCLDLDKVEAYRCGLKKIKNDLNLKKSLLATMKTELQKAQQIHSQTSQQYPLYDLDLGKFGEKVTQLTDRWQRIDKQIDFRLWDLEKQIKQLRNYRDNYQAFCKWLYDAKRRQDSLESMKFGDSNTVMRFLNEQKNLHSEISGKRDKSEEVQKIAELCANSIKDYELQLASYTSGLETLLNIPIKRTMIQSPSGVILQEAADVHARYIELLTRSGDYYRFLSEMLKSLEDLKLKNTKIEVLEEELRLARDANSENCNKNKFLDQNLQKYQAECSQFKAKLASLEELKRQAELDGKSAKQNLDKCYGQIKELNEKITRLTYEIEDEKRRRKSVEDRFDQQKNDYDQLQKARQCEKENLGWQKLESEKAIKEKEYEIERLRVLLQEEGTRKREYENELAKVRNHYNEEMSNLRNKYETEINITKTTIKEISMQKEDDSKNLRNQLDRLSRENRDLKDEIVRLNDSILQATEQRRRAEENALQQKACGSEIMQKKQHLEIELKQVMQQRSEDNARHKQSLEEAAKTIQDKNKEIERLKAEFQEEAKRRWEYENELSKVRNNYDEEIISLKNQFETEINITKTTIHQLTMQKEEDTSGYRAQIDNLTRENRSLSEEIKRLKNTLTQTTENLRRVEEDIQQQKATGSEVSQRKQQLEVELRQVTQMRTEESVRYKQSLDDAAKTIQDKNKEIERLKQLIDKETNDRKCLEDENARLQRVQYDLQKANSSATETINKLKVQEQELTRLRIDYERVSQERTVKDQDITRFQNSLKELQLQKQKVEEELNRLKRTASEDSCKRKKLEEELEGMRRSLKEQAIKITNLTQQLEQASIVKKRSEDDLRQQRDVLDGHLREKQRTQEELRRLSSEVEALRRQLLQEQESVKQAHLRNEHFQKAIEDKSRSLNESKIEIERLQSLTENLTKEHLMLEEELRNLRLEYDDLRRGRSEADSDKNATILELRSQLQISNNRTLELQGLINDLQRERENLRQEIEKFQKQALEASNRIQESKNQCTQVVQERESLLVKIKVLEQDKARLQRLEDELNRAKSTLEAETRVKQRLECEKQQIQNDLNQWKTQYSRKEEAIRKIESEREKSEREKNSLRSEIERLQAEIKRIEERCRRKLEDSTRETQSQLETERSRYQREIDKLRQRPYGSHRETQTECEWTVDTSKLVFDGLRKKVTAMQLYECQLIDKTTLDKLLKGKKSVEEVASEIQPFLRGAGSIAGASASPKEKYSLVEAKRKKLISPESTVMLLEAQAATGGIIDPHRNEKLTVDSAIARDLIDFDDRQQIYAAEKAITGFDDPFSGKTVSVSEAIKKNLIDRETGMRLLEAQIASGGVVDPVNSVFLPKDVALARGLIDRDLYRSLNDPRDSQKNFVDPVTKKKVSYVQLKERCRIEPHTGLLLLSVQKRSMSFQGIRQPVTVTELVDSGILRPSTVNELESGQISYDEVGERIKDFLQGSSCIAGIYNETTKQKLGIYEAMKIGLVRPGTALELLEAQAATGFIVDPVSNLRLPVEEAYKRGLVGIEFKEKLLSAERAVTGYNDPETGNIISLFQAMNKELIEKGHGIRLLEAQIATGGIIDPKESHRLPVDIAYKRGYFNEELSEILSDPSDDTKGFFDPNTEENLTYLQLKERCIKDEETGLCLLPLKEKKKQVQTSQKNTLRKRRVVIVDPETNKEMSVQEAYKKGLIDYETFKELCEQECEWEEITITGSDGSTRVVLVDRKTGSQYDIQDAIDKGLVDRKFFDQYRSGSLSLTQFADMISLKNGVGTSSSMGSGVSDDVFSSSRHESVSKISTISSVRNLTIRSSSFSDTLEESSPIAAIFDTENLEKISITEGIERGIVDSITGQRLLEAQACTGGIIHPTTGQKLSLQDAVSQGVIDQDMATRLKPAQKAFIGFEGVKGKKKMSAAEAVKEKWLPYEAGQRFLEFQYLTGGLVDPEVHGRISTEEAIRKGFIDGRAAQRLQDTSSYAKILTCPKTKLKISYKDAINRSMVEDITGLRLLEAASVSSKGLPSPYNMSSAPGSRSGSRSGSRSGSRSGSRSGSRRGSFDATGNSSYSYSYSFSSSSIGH
mutant desmoplakin p.Tyr1188His fused to GFP (P15924, form named): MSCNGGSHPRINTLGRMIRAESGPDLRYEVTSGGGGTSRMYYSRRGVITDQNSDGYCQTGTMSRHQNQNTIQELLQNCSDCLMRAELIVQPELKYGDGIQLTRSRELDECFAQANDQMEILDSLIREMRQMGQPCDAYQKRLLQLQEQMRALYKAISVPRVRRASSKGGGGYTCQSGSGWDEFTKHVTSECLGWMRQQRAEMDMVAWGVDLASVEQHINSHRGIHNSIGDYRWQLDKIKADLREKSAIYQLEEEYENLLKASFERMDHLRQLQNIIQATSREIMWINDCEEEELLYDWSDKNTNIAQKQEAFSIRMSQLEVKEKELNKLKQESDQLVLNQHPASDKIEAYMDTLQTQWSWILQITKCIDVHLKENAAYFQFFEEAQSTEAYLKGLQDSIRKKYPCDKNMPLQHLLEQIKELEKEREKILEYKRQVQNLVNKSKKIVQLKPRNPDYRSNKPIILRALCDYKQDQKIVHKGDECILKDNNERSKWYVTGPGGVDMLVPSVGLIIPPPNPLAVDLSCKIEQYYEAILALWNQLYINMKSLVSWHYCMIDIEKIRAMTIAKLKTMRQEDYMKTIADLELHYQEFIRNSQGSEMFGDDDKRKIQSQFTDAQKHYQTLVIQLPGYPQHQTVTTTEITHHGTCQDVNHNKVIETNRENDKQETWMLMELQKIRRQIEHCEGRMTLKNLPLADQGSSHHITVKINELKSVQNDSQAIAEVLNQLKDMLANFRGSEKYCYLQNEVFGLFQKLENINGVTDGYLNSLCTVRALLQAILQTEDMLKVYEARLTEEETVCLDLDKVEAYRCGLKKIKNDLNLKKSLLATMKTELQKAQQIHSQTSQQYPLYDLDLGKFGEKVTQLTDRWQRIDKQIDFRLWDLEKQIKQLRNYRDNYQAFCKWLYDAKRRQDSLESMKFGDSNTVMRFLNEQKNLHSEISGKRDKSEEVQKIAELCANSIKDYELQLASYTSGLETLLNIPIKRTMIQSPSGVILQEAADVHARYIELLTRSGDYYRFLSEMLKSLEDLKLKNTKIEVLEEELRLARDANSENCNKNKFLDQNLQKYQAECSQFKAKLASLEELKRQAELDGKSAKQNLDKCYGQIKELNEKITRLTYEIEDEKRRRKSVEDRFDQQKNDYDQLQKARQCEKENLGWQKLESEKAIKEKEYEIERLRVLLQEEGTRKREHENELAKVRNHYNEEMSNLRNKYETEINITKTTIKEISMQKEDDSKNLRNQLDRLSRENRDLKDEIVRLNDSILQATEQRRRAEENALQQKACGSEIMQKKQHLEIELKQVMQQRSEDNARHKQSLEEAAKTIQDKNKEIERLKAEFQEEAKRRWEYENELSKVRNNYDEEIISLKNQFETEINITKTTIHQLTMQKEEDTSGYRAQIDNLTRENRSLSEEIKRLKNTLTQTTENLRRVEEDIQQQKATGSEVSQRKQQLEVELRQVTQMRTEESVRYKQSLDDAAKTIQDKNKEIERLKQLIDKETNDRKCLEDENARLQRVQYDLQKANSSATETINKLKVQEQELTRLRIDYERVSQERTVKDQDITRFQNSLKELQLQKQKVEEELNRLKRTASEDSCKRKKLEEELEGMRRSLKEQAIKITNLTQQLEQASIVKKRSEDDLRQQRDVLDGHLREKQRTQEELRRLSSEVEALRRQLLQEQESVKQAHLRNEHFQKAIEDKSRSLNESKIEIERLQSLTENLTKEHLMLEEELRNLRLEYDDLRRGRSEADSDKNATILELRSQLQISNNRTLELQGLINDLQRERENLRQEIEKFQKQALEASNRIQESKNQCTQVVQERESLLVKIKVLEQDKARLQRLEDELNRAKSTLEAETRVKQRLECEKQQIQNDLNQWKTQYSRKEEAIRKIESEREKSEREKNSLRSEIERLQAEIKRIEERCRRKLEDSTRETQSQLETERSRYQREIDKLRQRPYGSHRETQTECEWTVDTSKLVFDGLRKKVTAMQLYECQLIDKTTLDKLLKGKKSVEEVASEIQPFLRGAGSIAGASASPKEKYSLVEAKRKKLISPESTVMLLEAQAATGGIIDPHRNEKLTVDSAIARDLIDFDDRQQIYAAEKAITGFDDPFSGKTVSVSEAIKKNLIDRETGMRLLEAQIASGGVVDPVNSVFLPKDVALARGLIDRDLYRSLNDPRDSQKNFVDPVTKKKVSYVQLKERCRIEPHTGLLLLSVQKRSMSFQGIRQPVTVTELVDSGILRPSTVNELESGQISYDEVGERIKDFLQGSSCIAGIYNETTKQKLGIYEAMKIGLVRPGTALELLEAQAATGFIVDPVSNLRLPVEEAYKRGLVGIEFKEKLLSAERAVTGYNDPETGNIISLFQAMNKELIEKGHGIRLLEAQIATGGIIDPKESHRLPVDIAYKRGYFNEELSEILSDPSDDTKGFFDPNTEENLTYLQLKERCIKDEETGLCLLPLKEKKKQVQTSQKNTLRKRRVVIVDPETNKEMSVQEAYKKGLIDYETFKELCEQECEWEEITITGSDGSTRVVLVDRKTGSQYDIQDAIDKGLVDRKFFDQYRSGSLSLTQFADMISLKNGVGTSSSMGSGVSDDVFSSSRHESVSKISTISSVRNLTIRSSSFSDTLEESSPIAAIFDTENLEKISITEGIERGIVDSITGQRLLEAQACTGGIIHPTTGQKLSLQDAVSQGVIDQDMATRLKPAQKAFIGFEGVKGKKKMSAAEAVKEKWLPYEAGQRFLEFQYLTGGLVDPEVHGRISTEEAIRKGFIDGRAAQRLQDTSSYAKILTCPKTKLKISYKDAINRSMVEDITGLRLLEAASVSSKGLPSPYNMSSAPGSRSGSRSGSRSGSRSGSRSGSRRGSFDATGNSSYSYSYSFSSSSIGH

Biological target: wild-type desmoplakin (DSP), fused to FLAG or to GFP (human) (UniProt P15924)
Assay: co-IP; DSP-WT:FLAG precipitated with magnetic beads coated with monoclonal anti-FLAG M2 from lysate (mild lysis buffer) of co-transfected cells, 48 h after transfection; immunoblot

In the case of “wild-type desmoplakin (DSP), fused to FLAG or to GFP (from UniProt P15924 1-2871)”, the binding is reported as “binds”.

“mutant desmoplakin p.Tyr1188His fused to GFP (from UniProt P15924 1-2871)” was tested, and the binding was “binds”.
